What was measured:
Assay type in all cases: cell-based
[1] = test system: MIAPaCa-2 (pancreas); experiment: In vitro cytotoxic activity assay (MTT), MIAPaCa-2; conditions: Homo sapiens, MIA PaCa-2; MIAPaCa-2 (pancreas) cells, exposed for 96 hours; read-out: IC50, 50% inhibition of cell proliferation
Experimental: (§1) Compounds 1-15 were screened for their in vitro cytotoxic activity utilizing a 3-(4,5-dimethyl-thiazol-2-yl)-2,5-diphenyltetrazolium bromide (MTT) assay against selected cancer human cell lines consisting of PC3 (prostate), HCT116 (colon), A375 (melanoma), H1299 (lung), MIAPaCa-2 (pancreas), HL60 (leukemia), MCF7 (breast), MDA-MB-231 (breast) (T. Mosmann, J. Immunol. Meth., 1983, 65, 55-63). The cells were cultured at 37° C. in RMPI1640 medium supplemented with 10% fetal bovine serum, 50 IU/mL penicillin, and 50 μg/mL streptomycin in a 5% CO2 incubator. All cells were sub-cultured 3 times/week by trypsinisation. Viable cells were seeded and allowed to adhere for 12 h before a test drug was added in 96-well plates at an initial density of 1.0×10^5 cells/mL. Tumour cell lines were separately exposed to various concentrations of the tested compounds followed by incubation at a temperature of 37° C. during 96 h inside a medium of fresh RMPI 1640. Cells were subsequently incubated at 37° C. using MTT at 0.5 mg/mL during 4 h. After removal of supernatant, formazan crystals were dissolved in isopropanol and the optical density was measured at 570 nm. CX-4945 was used as a positive control.

[2] = test system: PC3 (prostate); experiment: In vitro cytotoxic activity assay (MTT), PC3; conditions: Homo sapiens, Prostate cell; PC3 (prostate) cells, exposed for 96 hours; read-out: IC50, 50% inhibition of cell proliferation
Experimental: as §1

[3] = test system: MDA-MB-231 (breast); experiment: In vitro cytotoxic activity assay (MTT), MDA-MB-231; conditions: Homo sapiens; MDA-MB-231 (breast) cells, exposed for 96 hours; read-out: IC50, 50% inhibition of cell proliferation
Experimental: as §1

[4] = test system: H1299 (lung); experiment: In vitro cytotoxic activity assay (MTT), H1299; conditions: Homo sapiens, NCI-H1299; H1299 (lung) cells, exposed for 96 hours; read-out: IC50, 50% inhibition of cell proliferation
Experimental: as §1

[5] = test system: A375 (melanoma); experiment: In vitro cytotoxic activity assay (MTT), A375; conditions: Homo sapiens, A-375; A375 (melanoma) cells, exposed for 96 hours; read-out: IC50, 50% inhibition of cell proliferation
Experimental: as §1

[6] = test system: HL60 (leukemia); experiment: In vitro cytotoxic activity assay (MTT), HL60; conditions: Homo sapiens, HL-60; HL60 (leukemia) cells, exposed for 96 hours; read-out: IC50, 50% inhibition of cell proliferation
Experimental: as §1

[7] = test system: MCF7 (breast); experiment: In vitro cytotoxic activity assay (MTT), MCF7; conditions: Homo sapiens; MCF7 (breast) cells, exposed for 96 hours; read-out: IC50, 50% inhibition of cell proliferation
Experimental: as §1

[8] = test system: HCT116 (colon); experiment: In vitro cytotoxic activity assay (MTT), HCT116; conditions: Homo sapiens, HCT-116; HCT116 (colon) cells, exposed for 96 hours; read-out: IC50, 50% inhibition of cell proliferation
Experimental: as §1

O=C(O)c1ccc2c(c1)nc(Nc1cccc(Cl)c1)c1ccncc12 [CX-4945, reference compound]
IC50 [1]: 1 µM | IC50 [2]: 2 µM | IC50 [3]: 6.2 µM | IC50 [4]: 2.3 µM | IC50 [5]: 4.1 µM | IC50 [6]: 3.7 µM | IC50 [7]: 9.1 µM | IC50 [8]: 2.3 µM

Source: patent US11897881B1, “Substituted pyrido[3,4-b]indole-3-carboxylic acids as CK2 inhibitors” (KING FAISAL UNIVERSITY, priority 2023, dated 2024)
